From patent publication US10271552B2, “Heterocyclic compounds as pesticides” (Bayer CropScience Aktiengesellschaft, priority 2015, dated 2019)
Some results were stated once for a whole list of compounds, not compound by compound.

Assays:
Type in all cases: in vivo
Phaedon cochleariae = Phaedon cochleariae spray test; details: 500 g/ha; Chinese cabbage leaf disks, larvae; after 7 days
Method: Phaedon cochleariae—Spray Test
Solvent: 78.0 parts by weight of acetone • • 1.5 parts by weight of dimethylformamide
(§1) Emulsifier: alkylarylpolyglycol ether
(§2) To produce a suitable preparation of active compound, 1 part by weight of active compound is mixed with the stated amount of solvents and is diluted with water, containing an emulsifier concentration of 1000 ppm, to the desired concentration. Further test concentrations are prepared by dilution with emulsifier containing water.
Chinese cabbage (Brassica pekinensis) leaf disks are sprayed with a preparation of the active ingredient of the desired concentration. Once dry, the leaf disks are infested with mustard beetle larvae (Phaedon cochleariae).
After 7 days mortality in % is determined. 100% means all beetle larvae have been killed and 0% means none of the beetle larvae have been killed.

Tetranychus urticae = Tetranychus urticae spray test OP-resistant; details: 500 g/ha; French bean leaf disks, all instars; after 6 days
Method: Tetranychus urticae—Spray Test OP-Resistant
(§3) Solvent: 78.0 parts by weight acetone • 1.5 parts by weight dimethylformamide
as §1, §2
French bean (Phaseolus vulgaris) leaf disks infected with all instars of the two spotted spidermite (Tetranychus urticae), are sprayed with a preparation of the active ingredient of the desired concentration.
After 6 days mortality in % is determined. 100% means all spider mites have been killed and 0% means none of the spider mites have been killed.

Nezara viridula [1] = test: Nezara viridula spray test (solvent 52.5 acetone / 7 dimethylformamide); details: 500 g/ha; barley plants, larvae; after 4 days
Method: Nezara viridula—Spray Test
(§4) Solvent: 52.5 parts by weight of acetone • 7 parts by weight of dimethylformamide
(§5) Emulsifier: alkylaryl polyglycolether
(§6) To produce a suitable preparation of active compound, 1 part by weight of active compound is mixed with the stated amount of solvent, and the concentrate is diluted with water, containing an emulsifier concentration of 1000 ppm, to the desired concentration. Ammonium salt and/or penetration enhancer in a dosage of 1000 ppm are added to the desired concentration if necessary.
Barley plants (Hordeum vulgare) infested with larvae of the southern green stink bug (Nezara viridula) are sprayed with a test solution containing the desired concentration of the active ingredient.
After 4 days mortality in % is determined. 100% means all the stink bugs have been killed; 0% means none of the stink bugs have been killed.

Euschistus heros = Euschistus heros test; details: 100 ppm; kidney bean plants, 10 larvae per plant; after 7 days
Nezara viridula [2] = test: Nezara viridula test (cotton plants, feeding control); details: 100 ppm, 10 larvae per plant, after 2 days
Myzus persicae = Myzus persicae spray test; details: 500 g/ha; Chinese cabbage leaf disks, all instars; after 5-6 days
Method: Myzus persicae—Spray Test
as §3, §1, §2
Chinese cabbage (Brassica pekinensis) leaf disks infected with all instars of the green peach aphid (Myzus persicae), are sprayed with a preparation of the active ingredient of the desired concentration.
After 5-6 days mortality in % is determined. 100% means all aphids have been killed and 0% means none of the aphids have been killed.

Nilaparvata lugens = Nilaparvata lugens spray test (solvent 52.5 acetone / 7 dimethylformamide); details: 500 g/ha; rice plants, larvae; after 4 days
Method: Nilaparvata lugens—Spray Test
as §4, §5
as §6, with “solvents” for “solvent,”, “and” for “and the concentrate”, “concentration. Further test concentrations are prepared by dilution with emulsifier containing water.” for “concentration.”
Rice plants (Oryza sativa) are treated by being sprayed with the desired concentration of the active compound and are infested with larvae of the brown planthopper (Nilaparvata lugens).
After 4 days mortality in % is determined. 100% means all planthoppers have been killed and 0% means none of the planthoppers have been killed.

Compound | mortality (Phaedon cochleariae) | mortality (Tetranychus urticae) | mortality (Nezara viridula [1]) | feeding control (Euschistus heros) | feeding control (Nezara viridula [2]) | mortality (Myzus persicae) | mortality (Nilaparvata lugens)
O=C(Nc1nc(-c2c(F)cccc2F)ns1)c1cccnc1C(F)(F)F [Compound I-1-6, N-[3-(2,6-difluorophenyl)-1,2,4-thiadiazol-5-yl]-2-(trifluoromethyl)nicotinamide] | ≥ 80% | ≥ 70% | ≥ 90% | ≥ 75% | ≥ 70% | – | –
O=C(Nc1nc(-c2ccccc2C(F)(F)F)ns1)c1cccnc1C(F)(F)F [Compound I-1-20, 2-(trifluoromethyl)-N-{3-[2-(trifluoromethyl)phenyl]-1,2,4-thiadiazol-5-yl}nicotinamide] | – | – | – | ≥ 75% | ≥ 70% | – | –
O=C(Nc1nc(-c2c(F)cccc2F)ns1)c1cccnc1C(F)(F)F.[Na+] [Compound I-1-30, Sodium [3-(2,6-difluorophenyl)-1,2,4-thiadiazol-5-yl]{[2-(trifluoromethyl)pyridin-3-yl]carbonyl}azanide] | – | – | – | – | – | ≥ 70% | ≥ 80%
O=C(Nc1nc(-c2ccccc2Cl)ns1)c1cccnc1C(F)(F)F [Compound I-1-43, N-[3-(2-chlorophenyl)-1,2,4-thiadiazol-5-yl]-2-(trifluoromethyl)nicotinamide] | – | – | – | – | ≥ 70% | – | –
